No constants are given. Whether binding was seen depends on the method and setting.
Molecular target: MBP-tagged SARS-CoV-2 nsp1 (full-length, His6-MBP fusion) (SARS-CoV-2) (UniProt P0DTD1)
Assay: pull-down

B1: primase heterodimer Pri1 - Pri2 (complex, UniProt P49642 1-420; P49643 1-509)
chain 1: METFDPTELPELLKLYYRRLFPYSQYYRWLNYGGVIKNYFQHREFSFTLKDDIYIRYQSFNNQSDLEKEMQKMNPYKIDIGAVYSHRPNQHNTVKLGAFQAQEKELVFDIDMTDYDDVRRCCSSADICPKCWTLMTMAIRIIDRALKEDFGFKHRLWVYSGRRGVHCWVCDESVRKLSSAVRSGIVEYLSLVKGGQDVKKKVHLSEKIHPFIRKSINIIKKYFEEYALVNQDILENKESWDKILALVPETIHDELQQSFQKSHNSLQRWEHLKKVASRYQNNIKNDKYGPWLEWEIMLQYCFPRLDINVSKGINHLLKSPFSVHPKTGRISVPIDLQKVDQFDPFTVPTISFICRELDAISTNEEEKEENEAESDVKHRTRDYKKTSLAPYVKVFEHFLENLDKSRKGELLKKSDLQKDF
chain 2: MEFSGRKWRKLRLAGDQRNASYPHCLQFYLQPPSENISLIEFENLAIDRVKLLKSVENLGVSYVKGTEQYQSKLESELRKLKFSYRENLEDEYEPRRRDHISHFILRLAYCQSEELRRWFIQQEMDLLRFRFSILPKDKIQDFLKDSQLQFEAISDEEKTLREQEIVASSPSLSGLKLGFESIYKIPFADALDLFRGRKVYLEDGFAYVPLKDIVAIILNEFRAKLSKALALTARSLPAVQSDERLQPLLNHLSHSYTGQDYSTQGNVGKISLDQIDLLSTKSFPPCMRQLHKALRENHHLRHGGRMQYGLFLKGIGLTLEQALQFWKQEFIKGKMDPDKFDKGYSYNIRHSFGKEGKRTDYTPFSCLKIILSNPPSQGDYHGCPFRHSDPELLKQKLQSYKISPGGISQILDLVKGTHYQVACQKYFEMIHNVDDCGFSLNHPNQFFCESQRILNGGKDIKKEPIQPETPQPKPSVQKTKDASSALASLNSSLEMDMEGLEDYFSEDS
Question: With B1 as the binder, how does the binding read?
Answer: The binding was “no binding”.

Source: paper doi:10.1101/2021.06.17.448816
